Binding data for one substance are collected here from article PMC9262611.

The test deals with T1, RpoB yeast two-hybrid fusion (Arabidopsis thaliana) (UniProt P50546).
T1 sequence: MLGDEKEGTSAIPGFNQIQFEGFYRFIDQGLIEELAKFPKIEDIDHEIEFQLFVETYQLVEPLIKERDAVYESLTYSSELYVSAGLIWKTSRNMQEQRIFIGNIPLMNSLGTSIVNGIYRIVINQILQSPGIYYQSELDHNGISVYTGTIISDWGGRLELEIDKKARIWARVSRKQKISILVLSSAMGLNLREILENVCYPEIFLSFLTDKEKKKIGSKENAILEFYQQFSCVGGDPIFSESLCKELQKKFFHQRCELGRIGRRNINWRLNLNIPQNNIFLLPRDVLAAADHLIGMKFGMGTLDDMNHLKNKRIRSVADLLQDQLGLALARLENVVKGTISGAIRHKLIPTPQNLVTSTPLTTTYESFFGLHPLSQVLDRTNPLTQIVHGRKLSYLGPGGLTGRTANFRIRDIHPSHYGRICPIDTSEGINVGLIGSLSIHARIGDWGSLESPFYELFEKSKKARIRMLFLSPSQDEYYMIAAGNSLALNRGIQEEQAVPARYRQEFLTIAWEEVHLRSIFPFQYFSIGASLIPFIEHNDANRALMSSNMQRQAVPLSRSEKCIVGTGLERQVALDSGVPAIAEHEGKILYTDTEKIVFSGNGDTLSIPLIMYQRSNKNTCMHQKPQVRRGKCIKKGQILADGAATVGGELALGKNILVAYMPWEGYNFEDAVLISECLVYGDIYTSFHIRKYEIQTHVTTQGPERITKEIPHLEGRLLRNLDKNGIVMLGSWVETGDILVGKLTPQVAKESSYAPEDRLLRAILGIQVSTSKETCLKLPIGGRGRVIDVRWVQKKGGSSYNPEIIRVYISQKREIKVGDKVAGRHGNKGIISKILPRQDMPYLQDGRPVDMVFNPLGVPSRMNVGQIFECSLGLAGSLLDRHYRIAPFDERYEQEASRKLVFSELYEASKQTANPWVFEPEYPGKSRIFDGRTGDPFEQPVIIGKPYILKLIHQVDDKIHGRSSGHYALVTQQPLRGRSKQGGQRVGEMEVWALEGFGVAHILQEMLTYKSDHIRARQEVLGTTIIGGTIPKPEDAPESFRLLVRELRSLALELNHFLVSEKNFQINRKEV
In words: two-hybrid; yeast Y2HGold, pGBKT7 bait and pGADT7 prey, growth on SD-Leu-Trp-His-Ade with X-α-Gal.

These are yes or no findings as the source states them, for the method shown. Tags and fused reporters may be left off the sequences shown.

With AD-AtNusG (Arabidopsis thaliana), the binding entry is on record as “no binding”.
